In PMC3832804:
Results are given in words; binding and its absence hold for the method and conditions named. Some binding calls cover weakened binding; strength is not graded here. Where a sequence is shown, tags or fusion partners need not be part of it.

The chains behind the UniProt entries cited, without tags or fusion partners. Residues count along the entry.
UniProt Q3UH93, residues 49-1925: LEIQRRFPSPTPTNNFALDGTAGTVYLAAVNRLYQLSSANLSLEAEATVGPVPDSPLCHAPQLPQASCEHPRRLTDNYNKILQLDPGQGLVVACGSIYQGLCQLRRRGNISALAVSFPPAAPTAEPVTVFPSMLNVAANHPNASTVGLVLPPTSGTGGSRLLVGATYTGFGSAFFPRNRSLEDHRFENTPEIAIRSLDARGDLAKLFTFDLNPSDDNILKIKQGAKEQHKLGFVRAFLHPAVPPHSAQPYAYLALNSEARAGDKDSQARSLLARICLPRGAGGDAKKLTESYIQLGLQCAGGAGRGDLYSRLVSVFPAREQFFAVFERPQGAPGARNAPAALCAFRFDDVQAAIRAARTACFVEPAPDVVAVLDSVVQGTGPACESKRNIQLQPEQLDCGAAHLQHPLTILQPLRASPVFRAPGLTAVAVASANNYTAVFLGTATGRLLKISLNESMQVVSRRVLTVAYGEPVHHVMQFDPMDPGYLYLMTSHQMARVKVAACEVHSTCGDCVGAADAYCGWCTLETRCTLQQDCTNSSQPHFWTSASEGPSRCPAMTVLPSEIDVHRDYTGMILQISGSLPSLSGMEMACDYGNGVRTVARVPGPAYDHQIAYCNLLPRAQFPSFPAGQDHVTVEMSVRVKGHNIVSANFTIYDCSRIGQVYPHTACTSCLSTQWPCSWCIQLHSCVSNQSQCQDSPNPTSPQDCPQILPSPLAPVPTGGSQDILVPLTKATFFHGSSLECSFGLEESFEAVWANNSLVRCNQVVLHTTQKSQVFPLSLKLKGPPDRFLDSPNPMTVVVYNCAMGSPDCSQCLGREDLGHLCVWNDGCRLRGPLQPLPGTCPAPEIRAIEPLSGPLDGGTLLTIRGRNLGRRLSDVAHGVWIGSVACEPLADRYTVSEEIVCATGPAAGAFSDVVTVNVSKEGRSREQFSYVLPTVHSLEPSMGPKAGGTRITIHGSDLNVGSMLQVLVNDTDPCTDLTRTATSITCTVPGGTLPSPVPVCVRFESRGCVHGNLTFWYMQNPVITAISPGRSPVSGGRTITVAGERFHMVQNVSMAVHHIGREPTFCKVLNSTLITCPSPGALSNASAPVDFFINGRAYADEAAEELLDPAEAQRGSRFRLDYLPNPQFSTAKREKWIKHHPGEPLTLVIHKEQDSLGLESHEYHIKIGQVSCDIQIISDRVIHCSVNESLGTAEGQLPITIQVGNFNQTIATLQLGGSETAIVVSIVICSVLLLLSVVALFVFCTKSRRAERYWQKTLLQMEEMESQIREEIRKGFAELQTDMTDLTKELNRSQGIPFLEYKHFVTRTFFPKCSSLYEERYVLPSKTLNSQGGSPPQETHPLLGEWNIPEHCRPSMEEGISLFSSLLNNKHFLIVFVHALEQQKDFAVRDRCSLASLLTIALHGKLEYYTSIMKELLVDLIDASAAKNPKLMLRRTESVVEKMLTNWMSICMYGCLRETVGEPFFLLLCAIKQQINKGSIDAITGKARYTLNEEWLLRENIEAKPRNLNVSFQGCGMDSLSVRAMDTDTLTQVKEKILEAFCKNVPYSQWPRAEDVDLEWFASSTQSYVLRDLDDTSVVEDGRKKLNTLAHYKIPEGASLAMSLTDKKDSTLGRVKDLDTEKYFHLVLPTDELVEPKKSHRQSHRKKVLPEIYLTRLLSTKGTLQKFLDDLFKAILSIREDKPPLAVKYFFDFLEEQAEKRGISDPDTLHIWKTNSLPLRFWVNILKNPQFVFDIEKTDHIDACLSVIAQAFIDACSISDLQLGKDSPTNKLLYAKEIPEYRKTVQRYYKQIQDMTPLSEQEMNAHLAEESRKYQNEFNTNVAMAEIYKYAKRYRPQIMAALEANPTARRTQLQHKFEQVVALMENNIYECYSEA

Biological target: plexinD1 on DP thymocytes (mouse (endogenous in thymocytes)) (UniProt Q3UH93)
Experiment: flow cytometry on cells; single cell suspensions of thymocytes (2 x 10^6 total) blocked with 2.4G2 Ab, stained with purified sema3E-Fc (5 μg/ml) for 15 min; bound sema3E-Fc detected with anti-mouse IgG2c-PE; gated on DP, CD4SP, CD8SP and DN; WT against D1ThyCKO thymocytes; only the binder purified

binding: binds
B1: Sema3E-Fc (Fc fusion, UniProt P70275 26-775)
chain: ANPSYPRLRLSHKELLELNRTSIFQSPLGFLDLHTMLLDEYQERLFVGGRDLVYSLNLERVSDGYREIYWPSTAVKVEECIMKGKDANECANYIRVLHHYNRTHLLTCATGAFDPHCAFIRVGHHSEEPLFHLESHRSERGRGRCPFDPNSSFVSTLVGNELFAGLYSDYWGRDSAIFRSMGKLGHIRTEHDDERLLKEPKFVGSYMIPDNEDRDDNKMYFFFTEKALEAENNAHTIYTRVGRLCVNDMGGQRILVNKWSTFLKARLVCSVPGMNGIDTYFDELEDVFLLPTRDPKNPVIFGLFNTTSNIFRGHAVCVYHMSSIREAFNGPYAHKEGPEYHWSLYEGKVPYPRPGSCASKVNGGKYGTTKDYPDDAIRFARMHPLMYQPIKPVHKKPILVKTDGKYNLRQLAVDRVEAEDGQYDVLFIGTDTGIVLKVITIYNQETEWMEEVILEELQIFKDPAPIISMEISSKRQQLYIGSASAVAQVRFHHCDMYGSACADCCLARDPYCAWDGISCSRYYPTGAHAKRRFRRQDVRHGNAAQQCFGQQFVGDALDRTEERLAYGIESNSTLLECTPRSLQAKVIWFVQKGRDVRKEEVKTDDRVVKMDLGLLFLRVRKSDAGTYFCQTVEHNFVHTVRKITLEVVEEHKVEGMFHKDHEEERHHKMPCPPLSGMSQGTKPWYKEFLQLIGYSNFQRVEEYCEKVWCTDKKRKKLKMSPSKWKYANPQEKRLRSKAEHFRLPRHTLLS
